Source: PubChem BioAssay AID1487 (National Center for Advancing Translational Sciences (NCATS), 2009)
Some of the results follow. The main result of the screen is listed elsewhere. These columns were measured beside it and carry no call. The list favours compounds with an active or inconclusive main result. Words in brackets tell the shape of the fitted curve; partial curves, single points and poor fits give uncertain potencies.

Experiment: qHTS Assay for Modulators of Lamin A Splicing
Conditions: HeLa LMNA splicing GFP/RFP minigene ratio, 48 h
Outline: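 Read-out is the ratio of GFP to DsRed2 object intensity, acquired by 488 nm laser-scanning cytometry on HeLa lamin A-EGFP minigene reporter cells. Compound incubation 48 hrs at 37 °C in Opti-MEM with 2% FBS; DMSO 0.5% final.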

[1] = measured here: GFP splicing reporter channel
[2] = measured here: RFP viability control channel

Row | Structure (SMILES) | AC50 [1] | AC50 [2]
1 | CCOC(=O)N1CCN(C2OC(=O)c3ccccc32)CC1 (configuration not stated) | 22.4 µM [falling, partial curve, poor fit] | –
2 | CC1=Nc2cc(C(=O)NC3CCCC3)ccc2Sc2ccc(Cl)cc21 | 0.562 µM [rising, full curve, poor fit] | 1.26 µM [rising, partial curve]
3 | COc1ccc(NS(=O)(=O)c2ccc(C)c(NC(=O)c3ccc(C)c(S(=O)(=O)N4CCOCC4)c3)c2)cc1 | 12.6 µM [rising, single point] | 14.1 µM [rising, partial curve]
4 | CC(C)(CNS(C)(=O)=O)SCc1ccc(Cl)cc1 | 35.5 µM [falling, single point] | –
5 | CC(=O)c1cccc(N(CC(=O)NCC2CCCO2)C(=O)CCC(=O)Nc2cc(C)on2)c1 (configuration not stated) | 20 µM [rising, partial curve, poor fit] | –
6 | O=C(NC1CC1)C1CCN(C2CCN(C(=O)/C=C/c3cccs3)CC2)CC1 | 1.58 µM [falling, partial curve] | 5.62 µM [falling, single point]
7 | CCC(c1nnnn1C1CCCC1)N(Cc1cccs1)Cc1cc2cccc(C)c2[nH]c1=O (configuration not stated) | 12.6 µM [rising, single point] | 15.8 µM [rising, single point]
8 | Cc1ccc(Cl)c(OCC(=O)Nc2ccc3c(c2)OCCO3)c1 | – | 20 µM [rising, single point]
9 | CC(C)CN(CC(C)C)S(=O)(=O)c1ccc(C(=O)Nc2sc3c(c2C(N)=O)CCN(C(C)C)C3)cc1 | 14.1 µM [falling, single point] | 28.2 µM [falling, single point]
10 | O=C(CNc1ccc(Cl)cc1)c1ccc(Br)cc1 | – | 11.2 µM [rising, partial curve]
11 | COc1cc(CNc2cc(C)ccc2C)cc(OC)c1OC | – | 17.8 µM [rising, single point]
12 | CC(C)Nc1oc(Cc2cccc3ccccc23)nc1C#N | 22.4 µM [rising, partial curve, poor fit] | 20 µM [rising, partial curve]
13 | COc1cccc(C(=O)Nc2c3c(nn2-c2ccc(C)cc2C)CS(=O)(=O)C3)c1OC | – | 15.8 µM [rising, partial curve, poor fit]
14 | COc1cc(N=c2c([N+](=O)[O-])nn(-c3ccc4c(c3)OCCO4)n2O)cc(OC)c1 | – | 4.47 µM [rising, full curve]
15 | Cc1cccc(N2CCN(c3ncnc4c3cnn4-c3ccc(Cl)cc3)CC2C)c1 (configuration not stated) | 20 µM [falling, partial curve, poor fit] | –
16 | O=C(Cn1c(-c2cccs2)cc2cc(F)ccc21)N1CCCCC1 | – | 14.1 µM [rising, single point]
17 | CCN(CC)S(=O)(=O)c1cccc(-c2nnc(SCCOc3ccccc3C)o2)c1 | 15.8 µM [rising, partial curve, poor fit] | 12.6 µM [rising, partial curve]
18 | O=C1c2cccc3cccc(c23)C(=O)N1OS(=O)(=O)c1ccc(Br)cc1 | – | 1.78 µM [rising, partial curve, poor fit]
19 | COc1cc(C(C(=O)NC2CCCCC2)N(Cc2ccco2)C(=O)c2cnccn2)cc(OC)c1OC (configuration not stated) | – | 0.00447 µM [falling, full curve, poor fit]
20 | CCOC(=O)NC1(Nc2ccc(Cl)cn2)Oc2ccccc2O1 | – | 20 µM [rising, single point]
21 | COc1cccc(N2CCN(c3ncnc4c3[nH]c3ccc(F)cc34)CC2C)c1 (configuration not stated) | 11.2 µM [falling, partial curve] | 10 µM [falling, partial curve]
22 | CN(C(=O)c1cccnc1)c1nnc(-c2cccnc2)s1 | 0.0398 µM [falling, full curve, poor fit] | –
23 | O=C(NCC1CCCO1)c1sc2cc(Cl)ccc2c1Cl (configuration not stated) | 35.5 µM [rising, single point] | –
24 | CC(=C\c1ccccc1)/C=C1/SC(=S)N(C(C(=O)O)C(C)C)C1=O (configuration not stated) | 8.91 µM [falling, full curve, poor fit] | 7.94 µM [falling, full curve, poor fit]
25 | CCOC(=O)c1c(C)nn(Cc2cccc(Cl)c2)c1N | 14.1 µM [rising, partial curve, poor fit] | 15.8 µM [rising, partial curve]
26 | CCOc1ccc(-c2c(=O)n(OCc3ccc([N+](=O)[O-])cc3)c3ccccc3[n+]2[O-])cc1 | – | 10 µM [rising, partial curve]
27 | O=C(Nc1c(C(=O)N2CCN(c3ccccc3)CC2)oc2ccccc12)c1ccccc1F | – | 0.0891 µM [rising, full curve, poor fit]

A different layout for some results above.
Row,Structure (SMILES),AC50 [1],AC50 [2]
8,Cc1ccc(Cl)c(OCC(=O)Nc2ccc3c(c2)OCCO3)c1,–,"20 µM [rising, single point]"
9,CC(C)CN(CC(C)C)S(=O)(=O)c1ccc(C(=O)Nc2sc3c(c2C(N)=O)CCN(C(C)C)C3)cc1,"14.1 µM [falling, single point]","28.2 µM [falling, single point]"
10,O=C(CNc1ccc(Cl)cc1)c1ccc(Br)cc1,–,"11.2 µM [rising, partial curve]"
11,COc1cc(CNc2cc(C)ccc2C)cc(OC)c1OC,–,"17.8 µM [rising, single point]"

Continuation:

Row | Structure (SMILES) | AC50 [1] | AC50 [2]
28 | COc1cc(/C=N/OCC(=O)NC23CC4CC(CC(C4)C2)C3)ccc1OCc1ccccc1 | – | 35.5 µM [rising, single point]
29 | COc1ccccc1C(=O)Nc1ccc(C(=O)/C=C/c2cccs2)cc1 | 31.6 µM [falling, partial curve] | 35.5 µM [falling, single point]
30 | O=C(N/N=C/c1ccc([N+](=O)[O-])o1)c1cccc(S(=O)(=O)N2CCOCC2)c1 | 17.8 µM [rising, partial curve, poor fit] | –
31 | CCCC1=Nc2cc(C(=O)NCCCOCC)ccc2Sc2ccccc21 | 14.1 µM [rising, partial curve] | –
32 | Cc1cc(C(=O)CSc2n[nH]c(N)n2)c(C)n1-c1ccc(F)cc1 | 22.4 µM [rising, single point] | 31.6 µM [rising, single point]
33 | COc1ccccc1NS(=O)(=O)c1ccc(Cl)c(NC(=O)c2sc3cc(Cl)ccc3c2Cl)c1 | 0.0891 µM [rising, full curve, poor fit] | –
34 | O=C(CCCCC(=O)N1CCN(c2ccccc2)CC1)N1CCN(c2ccccc2)CC1 | – | 14.1 µM [rising, single point]
35 | CC(=O)/C=C(\C)Nc1c(C)n(C)n(-c2ccccc2)c1=O | 0.01 µM [rising, full curve, poor fit] | 0.0126 µM [rising, full curve, poor fit]
36 | O=C(COc1ccc2ccccc2c1Br)N1CCN(c2ccccn2)CC1 | 12.6 µM [rising, single point] | 15.8 µM [rising, partial curve]
37 | CC1CCCC(NC(=O)COC(=O)CSc2ccc3ccccc3c2)C1C (configuration not stated) | 20 µM [rising, single point] | –
38 | Cc1ccc(S(=O)(=O)N2CCCCC2)cc1NC(=O)CNCc1ccco1 | 0.631 µM [falling, partial curve] | 5.01 µM [falling, partial curve, poor fit]
39 | O=C(/C=C/c1cccc([N+](=O)[O-])c1)N1CCN(c2ccc(F)cc2)CC1 | 35.5 µM [rising, single point] | 28.2 µM [rising, single point]
40 | COc1ccc(Nc2ccc(S(=O)(=O)N3CCCCC3)cc2[N+](=O)[O-])cc1OC | 15.8 µM [rising, partial curve] | 15.8 µM [rising, partial curve]
41 | C=CCc1ccc(OCCCCCN2CCOCC2)c(OC)c1 | – | 0.501 µM [falling, full curve, poor fit]
42 | O=C(NCc1ccco1)c1cccc(NC(=O)c2ccco2)c1 | 8.91 µM [rising, partial curve] | 10 µM [rising, partial curve]
43 | CCN(Cc1ccccc1)S(=O)(=O)c1cc(C(=O)NCC2CCCCC2)ccc1OC | – | 7.08 µM [rising, partial curve, poor fit]
44 | CCOC(=O)c1c(NC(=O)c2ccccc2N(C)S(=O)(=O)c2ccccc2)sc2c1CCCC2 | – | 1.58 µM [rising, full curve, poor fit]
45 | Cc1nn(C)c(C(=O)NN)c1Cl | 1.26 µM [rising, partial curve, poor fit] | –
46 | CCOC(=O)c1cnc(-n2nc(C)cc2C)nc1Nc1ccc(N(C)C)cc1 | 7.94 µM [rising, partial curve] | 7.94 µM [rising, partial curve]
47 | N#C/C=C\Oc1ccc(Cl)cc1N | 7.94 µM [rising, partial curve] | 7.08 µM [rising, full curve]
48 | Cc1cc(=O)n2[nH]c(-c3ccc(C(C)(C)C)cc3)cc2n1 | 14.1 µM [falling, partial curve] | 15.8 µM [rising, partial curve]
49 | O=C(Oc1cccc(O)c1)C1CCCCC1 | 0.0562 µM [falling, partial curve, poor fit] | –
50 | O=C(Cc1ccc2c(c1)CCCC2)Nc1ccc2ccccc2c1 | – | 0.0562 µM [rising, full curve, poor fit]
51 | COC(=O)c1c(NC(=O)C2(C)Cc3ccccc3C(=O)O2)sc2c1CCCC2 (configuration not stated) | – | 12.6 µM [rising, partial curve]
52 | COc1ccc2oc(=O)c(-c3nc(-c4ccc(C)c(C)c4)cs3)cc2c1 | 10 µM [rising, partial curve] | –
53 | COc1ccc(C2SCCN2C(=S)Nc2ccc(Cl)cc2)cc1 (configuration not stated) | 20 µM [rising, single point] | 14.1 µM [rising, partial curve, poor fit]
54 | OC(CNCc1cccc(Cl)c1)c1ccccc1 (configuration not stated) | 4.47 µM [falling, full curve] | 7.94 µM [falling, full curve, poor fit]
